# In the supplement of paper PMC6411743:
# ± gives the standard deviation of the averaged measurements. Some of the results follow.
# Assays:
# Experiment in all cases: NP40-soluble protein abundance relative to vehicle (solubility fold change) (ratio); higher = more soluble protein in presence of GTP
# [1] = biological target: T1, UniProt Q99808 and related entries
# T1 sequence (whole entry): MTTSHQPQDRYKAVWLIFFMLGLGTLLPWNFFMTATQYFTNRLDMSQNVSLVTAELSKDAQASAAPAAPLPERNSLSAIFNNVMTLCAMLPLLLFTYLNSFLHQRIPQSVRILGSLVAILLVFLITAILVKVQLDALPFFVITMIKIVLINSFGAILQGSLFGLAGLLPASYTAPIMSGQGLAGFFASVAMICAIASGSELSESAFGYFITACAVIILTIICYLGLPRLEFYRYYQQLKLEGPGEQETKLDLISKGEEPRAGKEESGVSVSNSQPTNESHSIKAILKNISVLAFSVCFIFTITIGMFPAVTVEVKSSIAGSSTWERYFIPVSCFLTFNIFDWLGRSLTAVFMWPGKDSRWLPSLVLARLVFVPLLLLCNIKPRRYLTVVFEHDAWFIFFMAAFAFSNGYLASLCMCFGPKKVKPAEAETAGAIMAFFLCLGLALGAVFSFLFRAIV
# Outline: (§1)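 In three independent experiments, Jurkat crude lysate made by Dounce homogenisation was treated for 10 min at room temperature and then 3 min at 37 °C with eight concentrations ranging from 0.1 to 10 mM. It was then solubilised with 0.8% NP40 plus benzonase for 60 min at 4 °C and ultracentrifuged. The supernatant was TMT-labelled for LC-MS/MS, and each value is the fold change against the detergent-processed vehicle for the same replicate, using vsn-normalised intensities.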
# [2] = biological target: T2, UniProt Q9BRT3
# T2 sequence (whole entry): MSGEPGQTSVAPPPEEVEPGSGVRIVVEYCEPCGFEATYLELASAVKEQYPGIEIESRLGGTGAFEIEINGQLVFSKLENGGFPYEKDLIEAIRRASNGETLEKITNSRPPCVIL
# Outline: as §1
# [3] = biological target: T3, UniProt Q9BTC8 and related entries
# T3 sequence (whole entry): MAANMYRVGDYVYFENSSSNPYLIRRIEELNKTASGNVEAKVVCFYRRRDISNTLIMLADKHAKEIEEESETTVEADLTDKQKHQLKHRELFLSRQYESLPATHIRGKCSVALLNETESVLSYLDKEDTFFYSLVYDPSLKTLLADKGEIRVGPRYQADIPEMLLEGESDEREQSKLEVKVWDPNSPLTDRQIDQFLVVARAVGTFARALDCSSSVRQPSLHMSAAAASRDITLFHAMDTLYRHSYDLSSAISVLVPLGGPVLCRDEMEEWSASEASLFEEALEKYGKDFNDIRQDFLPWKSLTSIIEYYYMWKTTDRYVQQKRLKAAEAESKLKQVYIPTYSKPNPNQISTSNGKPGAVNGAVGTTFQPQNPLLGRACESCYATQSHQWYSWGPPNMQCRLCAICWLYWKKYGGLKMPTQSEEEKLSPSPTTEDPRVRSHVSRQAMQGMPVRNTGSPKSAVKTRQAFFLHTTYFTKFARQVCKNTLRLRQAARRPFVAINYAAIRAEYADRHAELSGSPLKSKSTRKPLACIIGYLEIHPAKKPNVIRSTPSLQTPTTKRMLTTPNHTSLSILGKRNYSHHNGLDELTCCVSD
# Outline: as §1
# [4] = biological target: T4, UniProt Q9BUJ2 and related entries
# T4 sequence (whole entry): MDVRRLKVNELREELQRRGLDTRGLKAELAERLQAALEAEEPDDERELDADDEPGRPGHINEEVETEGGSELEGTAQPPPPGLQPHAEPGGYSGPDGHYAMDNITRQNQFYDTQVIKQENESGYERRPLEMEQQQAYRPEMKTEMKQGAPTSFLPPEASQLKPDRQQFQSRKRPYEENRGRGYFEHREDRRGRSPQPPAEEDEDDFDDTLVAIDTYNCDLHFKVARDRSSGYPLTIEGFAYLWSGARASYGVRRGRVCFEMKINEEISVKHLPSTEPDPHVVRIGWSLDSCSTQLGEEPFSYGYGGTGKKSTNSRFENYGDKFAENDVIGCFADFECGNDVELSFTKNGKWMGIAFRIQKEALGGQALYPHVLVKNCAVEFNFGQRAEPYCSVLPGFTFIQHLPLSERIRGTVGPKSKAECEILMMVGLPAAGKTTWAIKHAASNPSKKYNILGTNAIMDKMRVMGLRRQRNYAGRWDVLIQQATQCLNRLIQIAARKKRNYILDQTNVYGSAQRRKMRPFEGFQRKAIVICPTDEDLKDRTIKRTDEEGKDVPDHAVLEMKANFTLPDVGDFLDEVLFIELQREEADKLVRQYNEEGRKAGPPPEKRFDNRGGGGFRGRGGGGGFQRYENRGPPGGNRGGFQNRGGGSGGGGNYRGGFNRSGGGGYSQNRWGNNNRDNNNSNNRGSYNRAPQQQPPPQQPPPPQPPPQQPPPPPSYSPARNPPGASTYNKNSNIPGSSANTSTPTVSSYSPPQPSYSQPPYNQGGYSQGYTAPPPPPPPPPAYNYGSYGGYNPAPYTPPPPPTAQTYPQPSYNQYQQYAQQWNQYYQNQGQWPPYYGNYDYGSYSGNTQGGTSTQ
# Outline: as §1
# [5] = biological target: T5, UniProt Q9BY77 and related entries
# T5 sequence (whole entry): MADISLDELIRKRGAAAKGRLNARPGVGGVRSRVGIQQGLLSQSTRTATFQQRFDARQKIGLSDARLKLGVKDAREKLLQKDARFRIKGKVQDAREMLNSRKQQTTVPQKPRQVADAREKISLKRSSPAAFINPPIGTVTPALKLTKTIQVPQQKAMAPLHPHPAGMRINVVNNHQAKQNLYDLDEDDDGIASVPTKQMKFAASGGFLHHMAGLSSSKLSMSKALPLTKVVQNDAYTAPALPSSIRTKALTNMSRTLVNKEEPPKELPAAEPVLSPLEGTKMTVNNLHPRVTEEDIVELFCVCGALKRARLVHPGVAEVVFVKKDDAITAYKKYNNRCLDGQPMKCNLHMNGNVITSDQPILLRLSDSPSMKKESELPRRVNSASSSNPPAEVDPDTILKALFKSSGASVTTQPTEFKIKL
# Outline: as §1
# [6] = biological target: T6, UniProt Q9BYJ9 and related entries
# T6 sequence (whole entry): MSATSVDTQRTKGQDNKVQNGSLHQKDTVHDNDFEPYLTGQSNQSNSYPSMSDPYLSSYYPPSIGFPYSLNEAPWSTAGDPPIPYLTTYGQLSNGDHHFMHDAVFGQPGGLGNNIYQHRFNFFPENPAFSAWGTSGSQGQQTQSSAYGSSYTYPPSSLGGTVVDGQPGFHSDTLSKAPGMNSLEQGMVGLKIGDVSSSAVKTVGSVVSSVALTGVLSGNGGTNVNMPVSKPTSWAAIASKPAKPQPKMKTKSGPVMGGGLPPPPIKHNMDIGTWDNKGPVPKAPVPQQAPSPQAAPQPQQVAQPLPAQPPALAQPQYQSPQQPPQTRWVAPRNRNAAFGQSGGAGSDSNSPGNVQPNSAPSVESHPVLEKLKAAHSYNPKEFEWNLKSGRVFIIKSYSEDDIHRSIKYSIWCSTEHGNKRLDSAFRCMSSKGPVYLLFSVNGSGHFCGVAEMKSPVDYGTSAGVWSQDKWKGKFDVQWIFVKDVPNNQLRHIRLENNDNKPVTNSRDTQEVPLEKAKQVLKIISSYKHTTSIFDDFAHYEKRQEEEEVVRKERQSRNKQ
# Outline: as §1
# [7] = biological target: T7, VRK1 (UniProt Q99986)
# T7 sequence (whole entry): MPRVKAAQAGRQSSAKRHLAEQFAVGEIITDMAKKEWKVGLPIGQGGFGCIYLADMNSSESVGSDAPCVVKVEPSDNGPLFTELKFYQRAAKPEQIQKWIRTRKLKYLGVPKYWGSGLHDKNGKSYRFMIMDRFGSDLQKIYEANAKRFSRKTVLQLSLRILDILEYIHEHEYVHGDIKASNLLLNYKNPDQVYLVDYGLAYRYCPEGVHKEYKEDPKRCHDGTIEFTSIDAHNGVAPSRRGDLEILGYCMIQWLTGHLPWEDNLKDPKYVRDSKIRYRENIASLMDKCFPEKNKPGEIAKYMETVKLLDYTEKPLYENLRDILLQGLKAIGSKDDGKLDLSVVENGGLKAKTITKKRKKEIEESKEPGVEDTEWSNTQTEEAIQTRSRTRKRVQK
# Outline: as §1
compound,measurement,setting,value
Nc1nc2c(ncn2[C@@H]2O[C@H](COP(=O)(O)OP(=O)(O)OP(=O)(O)O)[C@@H](O)[C@H]2O)c(=O)[nH]1 [guanosine triphosphate],NP40-soluble protein abundance,[1]; concentration: 4mM,0.773 ± 0.035
same,NP40-soluble protein abundance,[1]; concentration: 6mM,0.857 ± 0.042
same,NP40-soluble protein abundance,[1]; concentration: 8mM,0.77 ± 0.085
same,NP40-soluble protein abundance,[1]; concentration: 10mM,0.812 ± 0.042
same,NP40-soluble protein abundance,[2]; concentration: 0.1mM,0.965 ± 0.026
same,NP40-soluble protein abundance,[2]; concentration: 0.5mM,0.918 ± 0.075
same,NP40-soluble protein abundance,[2]; concentration: 1mM,0.931 ± 0.064
same,NP40-soluble protein abundance,[2]; concentration: 2mM,0.857 ± 0.079
same,NP40-soluble protein abundance,[2]; concentration: 4mM,0.849 ± 0.085
same,NP40-soluble protein abundance,[2]; concentration: 6mM,0.836 ± 0.1
same,NP40-soluble protein abundance,[2]; concentration: 8mM,0.836 ± 0.09
same,NP40-soluble protein abundance,[2]; concentration: 10mM,0.838 ± 0.079
same,NP40-soluble protein abundance,[3]; concentration: 0.1mM,1.03 ± 0.086
same,NP40-soluble protein abundance,[3]; concentration: 0.5mM,1.07 ± 0.15
same,NP40-soluble protein abundance,[3]; concentration: 1mM,1.11 ± 0.1
same,NP40-soluble protein abundance,[3]; concentration: 2mM,1.11 ± 0.18
same,NP40-soluble protein abundance,[3]; concentration: 4mM,1.11 ± 0.088
same,NP40-soluble protein abundance,[3]; concentration: 6mM,1.11 ± 0.1
same,NP40-soluble protein abundance,[3]; concentration: 8mM,1.14 ± 0.089
same,NP40-soluble protein abundance,[3]; concentration: 10mM,1.1 ± 0.081
same,NP40-soluble protein abundance,[4]; concentration: 0.1mM,1.01 ± 0.037
same,NP40-soluble protein abundance,[4]; concentration: 0.5mM,1.04 ± 0.028
same,NP40-soluble protein abundance,[4]; concentration: 1mM,1.01 ± 0.017
same,NP40-soluble protein abundance,[4]; concentration: 2mM,0.994 ± 0.024
same,NP40-soluble protein abundance,[4]; concentration: 4mM,0.9791 ± 0.0093
same,NP40-soluble protein abundance,[4]; concentration: 6mM,0.9661 ± 0.0057
same,NP40-soluble protein abundance,[4]; concentration: 8mM,0.999 ± 0.03
same,NP40-soluble protein abundance,[4]; concentration: 10mM,0.939 ± 0.023
same,NP40-soluble protein abundance,[5]; concentration: 0.1mM,0.928 ± 0.038
same,NP40-soluble protein abundance,[5]; concentration: 0.5mM,0.907 ± 0.035
same,NP40-soluble protein abundance,[5]; concentration: 1mM,1 ± 0.044
same,NP40-soluble protein abundance,[5]; concentration: 2mM,1.05 ± 0.045
same,NP40-soluble protein abundance,[5]; concentration: 4mM,1.15 ± 0.024
same,NP40-soluble protein abundance,[5]; concentration: 6mM,1.28 ± 0.036
same,NP40-soluble protein abundance,[5]; concentration: 8mM,1.36 ± 0.039
same,NP40-soluble protein abundance,[5]; concentration: 10mM,1.54 ± 0.075
same,NP40-soluble protein abundance,[6]; concentration: 0.1mM,0.938 ± 0.075
same,NP40-soluble protein abundance,[6]; concentration: 0.5mM,0.959 ± 0.062
same,NP40-soluble protein abundance,[6]; concentration: 1mM,0.964 ± 0.086
same,NP40-soluble protein abundance,[6]; concentration: 2mM,0.934 ± 0.088
same,NP40-soluble protein abundance,[6]; concentration: 4mM,0.946 ± 0.075
same,NP40-soluble protein abundance,[6]; concentration: 6mM,0.944 ± 0.052
same,NP40-soluble protein abundance,[6]; concentration: 8mM,0.972 ± 0.086
same,NP40-soluble protein abundance,[6]; concentration: 10mM,0.971 ± 0.092
same,NP40-soluble protein abundance,[7]; concentration: 0.1mM,1.11 ± 0.042
same,NP40-soluble protein abundance,[7]; concentration: 0.5mM,1.24 ± 0.052
same,NP40-soluble protein abundance,[7]; concentration: 1mM,1.21 ± 0.029
same,NP40-soluble protein abundance,[7]; concentration: 2mM,1.31 ± 0.085
same,NP40-soluble protein abundance,[7]; concentration: 4mM,1.34 ± 0.078
same,NP40-soluble protein abundance,[7]; concentration: 6mM,1.38 ± 0.093
same,NP40-soluble protein abundance,[7]; concentration: 8mM,1.33 ± 0.093
same,NP40-soluble protein abundance,[7]; concentration: 10mM,1.3 ± 0.024

# Given bar-delimited: entries from further up
compound | measurement | setting | value
Nc1nc2c(ncn2[C@@H]2O[C@H](COP(=O)(O)OP(=O)(O)OP(=O)(O)O)[C@@H](O)[C@H]2O)c(=O)[nH]1 [guanosine triphosphate] | NP40-soluble protein abundance | [6]; concentration: 0.5mM | 0.959 ± 0.062
same | NP40-soluble protein abundance | [6]; concentration: 1mM | 0.964 ± 0.086
same | NP40-soluble protein abundance | [6]; concentration: 2mM | 0.934 ± 0.088
same | NP40-soluble protein abundance | [6]; concentration: 4mM | 0.946 ± 0.075
